Test results reported in paper PMC6113226.

What was measured:
Assay in all cases: co-IP; lysates of Xenopus gastrula (stage 10) embryos injected with RNAs of tagged proteins; ice-cold TNSG buffer (20 mM Tris-HCl pH 7.5, 137 mM NaCl, 1% NP-40); IP 8 h, 25 embryo equivalents, anti-Flag, HA or V5-agarose; western blot; in some panels Dsh2-MO, Dsh2-MOR RNA, caFGFR or EphB-ΔC RNAs co-injected
Rab35 = target: Rab35
[1] = target: ephrinB2-Δ4-HA (ephrinB2 mutant that lacks the PDZ-binding motif) (Xenopus)
Rab5 = target: Rab5

binding (Rab35): binds | binding [1]: no binding | binding (Rab5): binds
B1: TBC1d24-V5 (wild-type Xenopus TBC1d24, V5-tagged) (protein, UniProt A1A5K6 1-562)
chain: MDEAEYGRFVDWDKMEAGGQEQSPKVLSCTDFQELKQMARQGHWAKSHTLRAKVYQKLIKEIPCRTVTPDASVYRDIVGKIVGKRSASSLPLPEFVDDRQIPSYSLNSEGTGAVRKIISCISNQFPDISFCPALPSLVALLLHYSQDEAECFENVSRILACNDPNRRLVDQTFLAFESSCMTFGDLAGKYCQGPHKLMVAVSEDVLELYSDWQRWIFGELPFAYITRVFDVFLVEGYKVLFRVALALLKFFHKVRGGQPMESNNVKRDLQMFVRDLNKCVTPEKLLEKAFAIRLFSRKEIQLLQMANEKALQQKGITVKQKRQNVHLAVHAENFTSEIVSVKEMRDIWSWIPERFALSQPLLLFTNREHGNSLSRFYLHCEGHEPTLLLIKTTNQEVCGAFLSTDWSERKRSGNKLSFFGTGECFVFRLQPEVERYEWVVIKHPELGKVNSSSADKEANSSQSDKDGIDPSSRLSPFLATRHFNLPSKTASMFMAGSIDCIIIGGGDGQALYLDPDLNYGRTSHCNTFNNQPLCSETFQISIIEVWGFKDNMNNDGAHSALH

These are yes or no findings as the source states them, for the method shown. Binding seen in cells or lysates may run through a third protein. For part of these data: A result given as binding can be weak or reduced; the word gives no strength. Tags and fused reporters may be left off the sequences shown.
